Consider 4 molecules from US20130108641A1.

Amino acid sequences for entries named in this document (tags omitted). A change or cut given only in a name is not applied to a line headed by its entry. Residues count along the entry.
UniProt Q9Y5U5: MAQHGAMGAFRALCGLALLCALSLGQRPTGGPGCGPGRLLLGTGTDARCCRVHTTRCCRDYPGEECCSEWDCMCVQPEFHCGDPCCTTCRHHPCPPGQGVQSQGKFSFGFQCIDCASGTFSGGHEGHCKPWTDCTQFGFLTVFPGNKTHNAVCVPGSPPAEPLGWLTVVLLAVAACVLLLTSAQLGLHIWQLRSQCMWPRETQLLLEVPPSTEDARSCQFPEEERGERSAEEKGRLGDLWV
human GITR expressed on cells: residues 26-241 of Q9Y5U5
human GITR protein (form not stated): residues 26-161 of Q9Y5U5

These are yes or no findings as the source states them, for the method shown. Some binding calls cover weakened binding; strength is not graded here.

In test [1] the target is human GITR expressed on cells (human) (UniProt Q9Y5U5). In words: Meso Scale assay on HEK293-Trex-hGITR cells.
In test [2] the target is human GITR protein (form not stated) (human) (UniProt Q9Y5U5). Put plainly: ELISA, GITR protein coated.

B1: anti-GITR antibody clone 1718 (antibody, V domains shown)
VH: QVQVQQSGPELVKPGASVRISCKASDYTFTNYYIHWVRQRPGQGLEWLGWIYPGKGYTNYNEKFKGKATLTADKSSSTAYMQFSSLTSEDSAVYFCASGYGNYYFPYWGQGTLVTVSA
VL: IQMTQSSSYLSVSLGGRVTITCKASDHIKNWLAWYQQKPGNVPRLLMSAATSLETGFPSRFSGSGSGKDFTLTITSLQTEDVATYYCQQYWSTPWTFGGGTKLEIK
B1: the binding result in test [1] is reported as “binds”.

B2: humanized anti-GITR antibody 2155 variant HC4-LC3 (antibody, V domains shown)
VH: EVQLVESGGGLIQPGGSLKLSCAASGFTISSYAMSWVRQAPGKGLEWVAIISTGGSTYYADSVKGRFTISRDNSKNTLYLQMNSLRAEDTAVYYCARVGGYYDSMDHWGQGTSVT
VL: DIVLTQSPASLAVSPGQRATITCRASETVDNYGISFMNWFQQKPGQPPKLLIYAASNQGSGVPARFSGSGSGTDFTLTINPVEADDTANYYCQQSKEVPWTFGQGTKVE
On to B2, for which, in test [2], the binding result is on record as “binds”.

B3: humanized anti-GITR antibody 2155 variant HC3a-LC2a (antibody, V domains shown)
VH: QVTLVESGGGLVKPGGSLTLSCGASGFTISSYAMSWVRQSPGKALEWVAIISTGGSTYYPDKFRGRFTISRDNAKNSLYLTMSSLRSEDTATYYCARVGGYYDSMDHWGQGTSVT
VL: DIVLTQSPASLSASVGDRATISCRASETVDNYGISFMNWFQQKPGQSPKLLIYAASNQGSGVPARFSGSGSGTDFSLTISPMQPDDTATYYCQQSKEVPWTFGGGTKLE
For the molecule B3, in test [2], the binding result is reported as “binds”.

B4: humanized anti-GITR antibody 2155 variant HC3b-LC2a (antibody, V domains shown)
VH: QVTLKESGGGLVKPGGSLTLSCGASGFTISSYAMSWVRQSPGKALEWVAIISTGGSTYYPDKFRGRFTISRDNAKNSLYLTMSSLRSEDTATYYCARVGGYYDSMDHWGQGTSVT
VL: DIVLTQSPASLSASVGDRATISCRASETVDNYGISFMNWFQQKPGQSPKLLIYAASNQGSGVPARFSGSGSGTDFSLTISPMQPDDTATYYCQQSKEVPWTFGGGTKLE
For the molecule B4, in test [2], the binding result is given as “binds”.
